Measured values published in publication PMC8677766.
Results are given in words; binding and its absence hold for the method and conditions named. In cells and extracts the contact can be indirect. Some binding calls cover weakened binding; strength is not graded here.

The chains behind the UniProt entries cited, without tags or fusion partners.
UniProt Q16186: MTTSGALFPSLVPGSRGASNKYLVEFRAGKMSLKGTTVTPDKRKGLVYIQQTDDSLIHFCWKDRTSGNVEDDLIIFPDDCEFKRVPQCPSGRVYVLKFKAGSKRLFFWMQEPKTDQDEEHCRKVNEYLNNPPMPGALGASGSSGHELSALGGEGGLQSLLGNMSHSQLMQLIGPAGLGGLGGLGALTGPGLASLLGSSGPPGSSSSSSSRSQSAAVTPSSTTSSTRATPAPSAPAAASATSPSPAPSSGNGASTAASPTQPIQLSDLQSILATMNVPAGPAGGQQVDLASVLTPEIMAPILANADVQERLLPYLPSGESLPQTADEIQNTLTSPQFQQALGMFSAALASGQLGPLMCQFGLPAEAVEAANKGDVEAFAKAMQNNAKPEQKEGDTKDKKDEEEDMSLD

Target: hRpt3 (a proteasome ATPase subunit) (human (endogenous in RPMI 8226)) (UniProt P43686)
Assay: co-IP; RPMI 8226 WT cell lysate (1 mg) with anti-hRpt3 or rabbit IgG overnight at 4 °C, Dynabeads protein G; three washes with 1% Triton-TBS lysis buffer; immunoblot for hRpn13, hRpn2, hRpt3

binding: binds
Substance: hRpn13 full-length protein (from UniProt Q16186 1-407)
